No constants are given. Whether binding was seen depends on the method and setting. Binding seen in cells or lysates may run through a third protein. Some entries that bind do so weakly or less than the wild type. Where a sequence is shown, tags or fusion partners need not be part of it.
Molecular target: C-terminally FLAG-tagged UL31 (HSV-1 nuclear egress complex protein pUL31) (HSV-1) (UniProt P10215)
Experiment: co-IP

Amino acid sequences for entries named in this document (tags omitted).
UniProt P10215: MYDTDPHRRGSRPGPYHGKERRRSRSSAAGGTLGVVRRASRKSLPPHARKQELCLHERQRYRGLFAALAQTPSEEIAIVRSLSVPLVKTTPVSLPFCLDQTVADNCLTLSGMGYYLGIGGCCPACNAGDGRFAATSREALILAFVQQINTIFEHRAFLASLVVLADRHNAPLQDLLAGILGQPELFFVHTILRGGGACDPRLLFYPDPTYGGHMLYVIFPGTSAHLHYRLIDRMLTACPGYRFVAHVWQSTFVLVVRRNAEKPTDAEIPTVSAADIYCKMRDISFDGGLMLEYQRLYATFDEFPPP

B1: EGFP-tagged UL13 (HSV-1 protein kinase pUL13) (protein, UniProt P04290 1-518)
chain: MDESRRQRPAGHVAANLSPQGARQRSFKDWLASYVHSNPHGASGRPSGPSLQDAAVSRSSHGSRHRSGLRERLRAGLSRWRMSRSSHRRASPETPGTAAKLNRPPLRRSQAALTAPPSSPSHILTLTRIRKLCSPVFAINPALHYTTLEIPGARSFGGSGGYGDVQLIREHKLAVKTIKEKEWFAVELIATLLVGECVLRAGRTHNIRGFIAPLGFSLQQRQIVFPAYDMDLGKYIGQLASLRTTNPSVSTALHQCFTELARAVVFLNTTCGISHLDIKCANILVMLRSDAVSLRRAVLADFSLVTLNSNSTIARGQFCLQEPDLKSPRMFGMPTALTTANFHTLVGHGYNQPPELLVKYLNNERAEFTNHRLKHDVGLAVDLYALGQTLLELVVSVYVAPSLGVPVTRFPGYQYFNNQLSPDFALALLAYRCVLHPALFVNSAETNTHGLAYDVPEGIRRHLRNPKIRRAFTDRCINYQHTHKAILSSVALPPELKPLLVLVSRLCHTNPCARHALS
  binding: binds

From doi:10.1101/2023.03.20.533584
